Data published in PubChem BioAssay AID2705 (National Center for Advancing Translational Sciences (NCATS), 2010).
The shares of active, inactive and inconclusive entries below differ from those in the screen. Potencies of inconclusive entries are doubtful fits and often do not repeat. The source made the active and inactive calls. Calls follow the shape of the dose curve; as a rule, active = well fitted inhibition curve with a large enough effect; inconclusive = small, poorly fitted or top-dose-only effect; inactive = flat fitted curve, though single readings scatter.

target: Dual specificity tyrosine-phosphorylation-regulated kinase 1A (Homo sapiens) (UniProt Q13627); experiment: Assay for Inhibitors of Dual-Specificity Tyrosine-(Y)-Phosphorylation Regulated Kinase 1A (Kinase-Glo assay); conditions: recombinant DYRK1A, Kinase-Glo ATP depletion luminescence
From the text: NIH Molecular Libraries Probe Production Centers Network [MLPCN] NIH Chemical Genomics Center [NCGC] MLSCN Grant: 1R03MH084827-01 PI Name: Tom Misteli NCGC Assay Overview: The CMGC group of protein kinases which includes CDK-like kinases (Clk) and Dyks are essential kinases found in all eukaryotes. Clks have been implicated to play a role in the regulation of alternative splicing; while Dyrks, in particular over expression of Dyrk1A, has been linked to diseases as Down syndrome (DS; OMIM 190685) and Alzheimer disease (AD; OMIM 104300). Among the members of the CMGC group, the Clks and the Dyrks are very closely related therefore to determine validity and selectivity of an active compound observed in the CLK4 qHTS screen (AID:1770), a bioluminescent counter-screen against Dyrk1A was developed. In addition, potent and selective compounds against Dyrk1A were identified to further assess the role of this enzyme in DS and AD. Dyrk1A (Invitrogen, cat # PV3785) was assayed using ATP and DYRKtide (AnaSpec, cat# 62698) as substrates. Promega Kinase-Glo (cat# V6712) technology was used to detect the residual ATP following kinetic reaction. The Kinase-Glo Plus contains Ultra-Glo [5] luciferase and D-luciferin which generates a bioluminescence signal from the remaining ATP. No enzyme and harmine (Sigma, cat # 286044-1G), a compound shown to inhibit Dyrks were used as a positive control; while DMSO treatment was used as a negative control.
NCGC Assay Protocol Summary: Two uL/well of substrate solution (8uM Dyrktide, 2uM ATP, 25mM Tris-HCl pH 7.5, 10mM MgCl2 , 0.5mM EGTA, 5mM cystein, 0.01% Triton X-100 final concentration) was dispensed into 1536-well assay plates (Greiner, solid white, medium-binding plates) with Aurora Discovery BioRAPTR Flying Reagent Dispenser (FRD, Beckton-Dickenson). Compound solution (23 nL) was transferred to the assay plate using Kalypsys pin tool equipped with a 1536-pin tool. One uL/well enzyme solution (5nM Dyrk1A, 25mM Tris-HCl pH7.5, 10mM MgCl2, 0.5mM EGTA, 5mM cystein, 0.01% Triton X-100 final concentration) was then added using FRD yielding a total kinase reaction volume of 3uL/well. After 2 hours of room temperature incubation, 3uL Kinase-Glo detection reagent was added for a final assay volume of 6uL/well. The plates were spun for 30 seconds (1000 rpm) and incubated at ambient temperature for 2 minutes followed by a luminescence read using Perkin Elmer ViewLux plate reader at 3 seconds exposure time and 2x binning.

SMILES	Potency
CN(Cc1cncn1C)c1ncnc2ccc(-c3ccc4c(c3)OCO4)cc12	active: 2.6 µM
CCOC(=O)c1ccoc1-c1ccc2ncnc(NCCc3cnc[nH]3)c2c1	inconclusive: 46.3 µM [falling, partial curve]
CCOC(=O)c1ccoc1-c1ccc2ncnc(NCc3ncc[nH]3)c2c1	inconclusive: 26 µM [falling, partial curve]
Cn1ccc2cc(-c3ccc4ncnc(NCc5cccs5)c4c3)ccc21	inconclusive: 46.3 µM [falling, partial curve]
Cc1nc(CNc2ncnc3ccc(-c4oc(-c5ccccc5)nc4C)cc23)cs1	inconclusive: 20.7 µM [falling, partial curve]
FC1(F)Oc2ccc(-c3ccc4ncnc(NCc5cccs5)c4c3)cc2O1	inconclusive: 8.23 µM [falling, full curve]
